Measured values taken from PubChem BioAssay AID206 (DTP/NCI, 2004).
The list shows only some results of the screen, not a fair sample: it gathers tests that were run many times, whatever their T/C, doses with no T/C, and many T/C values between a quarter and a half above the control. Other doses and runs of a compound stand elsewhere. T/C: endpoint of the treated group in % of that of the vehicle group. Schedule codes are those of the source, taken here to give the interval after Q, in days (D) or hours (H), and the number of doses after X. Some T/C values are negative: the treated tumours shrank. Some entries hold several experiments; their values stand side by side, smallest first. Some T/C values are followed by the survivors on the day toxicity was checked, most often the fifth; without a count, all were alive then. Some entries give survivors of the animals treated and no T/C: the source holds a T/C of zero for them, seemingly a mark for toxic or unscored doses. Survivors were counted at the toxicity check, usually on the fifth day, unless a day is given; later deaths do not show.

Test system: nude mice, HT29 intrarenal xenograft, tumor weight T/C
Assay: NCI In Vivo Anticancer Drug Screen. Data for tumor model HT29;CX-1 Human Adenocarcinoma (MER+) (intrarenal inoculation) in NU/NU Swiss (nude) mice
Conditions: T/C endpoint: mean tumor weight change, higher T/C = larger tumour
Procedure, shortened: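 T/C = treated-group value ÷ vehicle-group value, using tumor size or survival.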

Q: For `O=C1C2(Cl)C3(Cl)C4(Cl)C(Cl)(Cl)C5(Cl)[C@]3(Cl)C1(Cl)[C@]5(Cl)C24Cl` (stereo partly drawn), which survivor count (dose: 150.0 mg/kg/injection, schedule: Q04DX004 (sc), vehicle: Klucel (hydroxypropylcellulose) (HPC)) is on record?
A: 3 of 6 on day 15

Q: What about the survivor count (dose: 300.0 mg/kg/injection, schedule: Q04DX004 (sc), vehicle: Klucel (hydroxypropylcellulose) (HPC)) of the same molecule?
A: 0 of 6 on day 15

Q: What about the survivor count (dose: 600.0 mg/kg/injection, schedule: Q04DX004 (sc), vehicle: Klucel (hydroxypropylcellulose) (HPC)) of the same molecule?
A: 0 of 6 on day 15

Q: For `CC(=O)NC(C=O)OCC=O` (stereo not drawn), which T/C (dose: 50.0 mg/kg/injection, schedule: Q04DX004 (sc), vehicle: water, evaluated on day 15) is on record?
A: 128 % of control

Q: And the T/C (dose: 400.0 mg/kg/injection, schedule: Q04DX004 (sc), vehicle: water, evaluated on day 15)?
A: 141 % of control

Q: How did the survivor count (dose: 100.0 mg/kg/injection, schedule: Q01DX010 (sc), vehicle: saline) turn out when `C[CH2][Ge]1([CH2]C)[CH2]CC2(CCN(CCCN(C)C)C2)C[CH2]1` was run?
A: 0 of 3 on day 20

Q: And the survivor count (dose: 200.0 mg/kg/injection, schedule: Q01DX010 (sc), vehicle: saline)?
A: 0 of 3 on day 20

Q: And the survivor count (dose: 400.0 mg/kg/injection, schedule: Q01DX010 (sc), vehicle: saline)?
A: 0 of 3 on day 20

Q: Which survivor count (dose: 2000.0 mg/kg/injection, schedule: Q04DX004 (sc), vehicle: suspension in saline) does the source give for `O=c1n[n+]([O-])ccn1C1OC(CO)C(O)C1O` (stereo not drawn) here?
A: 0 of 6 on day 15

Q: With `ClCC[Se](Cl)(Cl)c1ccccc1` as the molecule, how does the T/C (dose: 25.0 mg/kg/injection, schedule: Q04DX004 (sc), vehicle: saline, evaluated on day 11) read?
A: 143 % of control

Q: And the survivor count (dose: 100.0 mg/kg/injection, schedule: Q04DX004 (sc), vehicle: saline)?
A: 1 of 6 on day 11

Q: How did the T/C (dose: 2.0 mg/kg/injection, schedule: Q04DX004 (sc), vehicle: saline + alcohol, evaluated on day 15) turn out when `CCC/C=C/C=C/C(=O)OC1/C(=C/C(=O)OC)CC2CC(C(C)O)OC(=O)CC(O)CC3CC(OC(C)=O)C(C)(C)C(O)(CC4C/C(=C/C(=O)OC)CC(/C=C/C(C)(C)C1(O)O2)O4)O3` (stereo not drawn) was run?
A: 132 % of control [5 of 6 alive on day 15]

Q: With `O=c1[nH]cc(F)c(=O)[nH]1` as the molecule, how does the survivor count (dose: 40.0 mg/kg/injection, schedule: Q01DX010 (sc), vehicle: saline) read?
A: 0 of 3 on day 11

Q: And the survivor count (dose: 50.0 mg/kg/injection, schedule: Q01DX010 (sc), vehicle: saline)?
A: 0 of 3 on day 11

Q: What about the survivor count (dose: 80.0 mg/kg/injection, schedule: Q01DX010 (sc), vehicle: saline) of the same molecule?
A: 0 of 3 on day 11

Q: What about the survivor count (dose: 112.0 mg/kg/injection, schedule: Q04DX004 (ip), vehicle: saline) of the same molecule?
A: 1 of 6 on day 15

Q: With `COc1ccc2c(NCCCCCCNc3c4ccccc4nc4cc(OC)ccc34)c3ccccc3nc2c1` as the molecule, how does the T/C (dose: 5.0 mg/kg/injection, schedule: Q01DX010 (sc), vehicle: lactic acid, evaluated on day 11) read?
A: -31, 79, 111 % of control

Q: And the T/C (dose: 10.0 mg/kg/injection, schedule: Q01DX010 (sc), vehicle: lactic acid, evaluated on day 11)?
A: 15, 19, 58, 68, 76 % of control

Q: What about the survivor count (dose: 10.0 mg/kg/injection, schedule: Q01DX010 (sc), vehicle: lactic acid) of the same molecule?
A: 0 of 3 on day 11

Q: What about the T/C (dose: 20.0 mg/kg/injection, schedule: Q01DX010 (sc), vehicle: lactic acid, evaluated on day 11) of the same molecule?
A: -15 % of control [2 of 3 alive on day 11]

Q: And the survivor count (dose: 20.0 mg/kg/injection, schedule: Q01DX010 (sc), vehicle: lactic acid)?
A: 0 of 3 on day 11, 1 of 5 on day 11, 1 of 3 on day 11

Q: And the survivor count (dose: 30.0 mg/kg/injection, schedule: Q01DX010 (sc), vehicle: lactic acid)?
A: 0 of 3 on day 11

Q: What about the survivor count (dose: 40.0 mg/kg/injection, schedule: Q01DX010 (sc), vehicle: lactic acid) of the same molecule?
A: 0 of 2 on day 11, 0 of 3 on day 11, 1 of 3 on day 11

Q: `CCCCCn1c(C)cc(/C=C\c2ccc3cc(C)ccc3[n+]2C)c1C` was tested. Which survivor count (dose: 8.0 mg/kg/injection, schedule: Q01DX010 (sc), vehicle: Klucel (hydroxypropylcellulose) (HPC)) did it give?
A: 0 of 3 on day 20

Q: `Clc1ccc(CN2COc3c(ccc4cccnc34)C2)cc1Cl` was tested. Which T/C (dose: 400.0 mg/kg/injection, schedule: Q01DX010 (sc), vehicle: saline with Tween-80, evaluated on day 11) did it give?
A: 134 % of control

Q: Which survivor count (dose: 100.0 mg/kg/injection, schedule: Q01DX010 (sc), vehicle: Klucel (hydroxypropylcellulose) (HPC)) does the source give for `CC1=C2CC(C)(C)/C=C\C(=O)/C(C)=C\C3=C[C@H](C)C[C@]3(O2)C1=O` here?
A: 0 of 3 on day 20

Q: What about the survivor count (dose: 200.0 mg/kg/injection, schedule: Q01DX010 (sc), vehicle: Klucel (hydroxypropylcellulose) (HPC)) of the same molecule?
A: 0 of 3 on day 20

Q: And the survivor count (dose: 400.0 mg/kg/injection, schedule: Q01DX010 (sc), vehicle: Klucel (hydroxypropylcellulose) (HPC))?
A: 0 of 3 on day 20
